Measurements as given in PubChem BioAssay AID651640 (Broad Institute, 2012).
Values joined by “and” are separate entries in the source; they are usually repeats but may differ in a detail not shown here. Equal entries are not always repeated. Among all 350,000 compounds or so, about 6,000 (1.7%) were called active. Inconclusive means that the source gave no clear call. Such entries were picked first, then a sample of the others. Cut-off read from the data, not from the text of the source: active = CPE inhibition above about 20% (passing the limit was not always enough); inconclusive = no clear call, values can overlap the other calls; tested in BHK-21 cells. Some structures have more than one record in an assay (separate samples or runs), and their calls can disagree.

assay: protection of cells from dengue 2 killing – plate reader, single concentration, primary screen (AID 651640); details: DENV2-infected cells, cytopathic effect rescue, at 9.99 µM, stronger effect = higher value;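 note: 0% = median of neutral control wells and 100% = median of positive control wells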

Row | SMILES | CPE inhibition
1 | Cc1cc(C2(c3ccc(O)c(C)c3)OC(=O)c3ccccc32)ccc1O | inactive: -11.1%
2 | Cc1ccccc1-c1ccccc1CN1[C@@H](C(C)C)COCCS1(=O)=O | inconclusive: 41.7%
3 | Fc1cccc(CN(C2=NCCN2)c2c(Cl)cccc2Cl)c1 | inconclusive: 54.8%
4 | O=C(CN1C(=O)NC(Cc2c[nH]c3ccccc23)C1=O)NC1CCCCC1 (stereo unspecified) | inconclusive: 22.9%
5 | C=CCn1c(C)cc(C(=O)COC(=O)CNC(=O)c2ccccc2)c1C | inactive: -1.47%
6 | OC[C@@H]1[C@@H](c2ccccc2)C2(CN(Cc3nccs3)C2)N1Cc1cccnc1 | active: 84.4%
7 | COc1ccc2c3c([nH]c2c1)[C@@H](CO)N(C(=O)c1ccccc1)CC31CN(C(=O)c2cccc(F)c2)C1 | inactive: 17.1%
8 | C[C@@H]1CN([C@@H](C)CO)C(=O)c2cc(NC(=O)CCC(F)(F)F)ccc2O[C@@H]1CN(C)Cc1ccc2c(c1)OCO2 | active: 29.1%
9 | C[C@H]1CN([C@@H](C)CO)C(=O)Cc2cc(NC(=O)Cn3cnnn3)ccc2O[C@H]1CN(C)C(=O)Nc1ccc(C(F)(F)F)cc1 | inactive: 10.2%
10 | Cc1ccc2c(c1)-c1cc(C)ccc1C2=O | inconclusive: 44.9%
11 | CCCOc1cccc(C2C(C(=O)c3ccco3)=C(O)C(=O)N2CCCn2ccnc2)c1 (stereo unspecified) | inconclusive: 32.5%
12 | c1ccc(C(c2ccccn2)c2ccccn2)cc1 | inconclusive: 21.2%
13 | CCCCn1c(N)c(N(CCC(C)C)C(=O)C2CC(=O)N(c3ccccc3OCC)C2)c(=O)[nH]c1=O (stereo unspecified) | active: 66.1%
14 | N=c1c(S(=O)(=O)c2ccccc2)cc2c(=O)n3ccccc3nc2n1C1CCCCC1 | inconclusive: 52.3%
15 | Cc1nc2c(-c3ccccc3)c(C)nn2c(C)c1CCC(=O)NCc1ccco1 | inconclusive: 23.1%
16 | C[C@H](O)C#Cc1ccc2c(c1)O[C@H](CN(C)C(=O)c1ccccc1)[C@@H](C)CN([C@H](C)CO)S2(=O)=O | inactive: -0.562%
17 | CCCN(CC(=O)Nc1ccccc1C)C(=O)c1ccc(COc2ccccc2)cc1 | inconclusive: 26.3%
18 | CC(=O)c1ccc(NC(=O)C(C)OC(=O)c2cccc(-n3cnnn3)c2)cc1 (stereo unspecified) | inconclusive: 38.6%
19 | COc1ccc(S(=O)(=O)Nc2ccc3c(c2)C(=O)N([C@H](C)CO)C[C@@H](C)[C@H](CN(C)S(=O)(=O)c2ccc(C)cc2)OCCCC[C@@H](C)O3)cc1 | inactive: -0.835%
20 | CC(C)CN(C(=O)CN1CCN(S(=O)(=O)c2ccc3ccccc3c2)CC1)c1c(N)n(CC(C)C)c(=O)[nH]c1=O | inconclusive: 47.8%
21 | CCOc1ccc(-n2c(Cc3cc(=O)[nH]c(=O)[nH]3)nnc2SCC(=O)NC2CCCC2)cc1 | inconclusive: 26.1%
22 | COc1ccc(CCNC(C(=O)Nc2cc(C)cc(C)c2)c2ccccc2)cc1 (stereo unspecified) | inconclusive: 20.7%
23 | C[C@H](CO)N1C[C@H](C)[C@H](CN(C)C(=O)NC2CCCC2)Oc2ncc(-c3ccccc3F)cc2C1=O | inconclusive: 37.7%

Row | SMILES | CPE inhibition
24 | Cc1ccc(S(=O)(=O)N[C@H]2CC[C@H](CCn3cc(C4CCCCC4)nn3)O[C@H]2CO)cc1 | inactive: 17.5%
25 | CC(=O)c1ccc(S(=O)(=O)NCc2cccnc2)cc1 | inconclusive: 24.7%
26 | COc1cc(F)ccc1-c1cc(C(=O)NCc2cc(C(F)(F)F)cc(C(F)(F)F)c2)[nH]n1 | inconclusive: 28.5%
27 | COc1ccc(N2CCN(C(=O)c3cn(Cc4ccccc4)nc3-c3cccnc3)CC2)cc1 | inconclusive: 51.2%
28 | COc1ccc(C2(C)CC(C)(C)Nc3ccccc32)cc1 (stereo unspecified) | active: 26.4%
29 | CN(C)CCCN1c2ccccc2Sc2ccccc21 | inconclusive: 23.8%
30 | C[C@H]1CN([C@@H](C)CO)C(=O)Cc2cc(NS(C)(=O)=O)ccc2O[C@H]1CN(C)S(=O)(=O)c1ccc(F)cc1 | active: 22.7%
31 | COCC(=O)Nc1ccc2c(c1)C(=O)N(C)C[C@@H](OC)[C@H](C)CN(Cc1cc(F)ccc1F)[C@H](C)CO2 | inactive: 1.31%
32 | CNc1nc(-c2ccc(S(=O)(=O)N3CCCCC3)cc2)cs1 | inconclusive: 26.1%
33 | Cc1nc2scc(C)n2c(=O)c1S(=O)(=O)NCCc1ccc(Cl)cc1 | inconclusive: 29.1%
34 | CCN(CC)S(=O)(=O)c1cc(NC(=O)c2ccc(-n3cncn3)c([N+](=O)[O-])c2)ccc1C | inactive: 1.92%
35 | O=C(CSc1ccc(-c2ccco2)nn1)Nc1ccccc1F | inconclusive: 53.9%
36 | C[C@@H]1CCCCO[C@H](CN(C)S(=O)(=O)c2cccs2)[C@H](C)CN([C@@H](C)CO)C(=O)c2cc(NC(=O)CCC(F)(F)F)ccc2O1 | inactive: 11.4%
37 | C[C@H](CO)N1C[C@H](C)[C@@H](CN(C)C)Oc2ccc(NC(=O)Nc3ccc(F)cc3)cc2C1=O | active: 75.3%
38 | Cc1cc(C)cc(OCCNC(=O)c2cc(S(=O)(=O)N3CCOCC3)ccc2F)c1 | inactive: 2.05%
39 | CSCCC(C(=O)Nc1c(C)cccc1C)N(Cc1ccccc1)Cc1ccccc1 (stereo unspecified) | inconclusive: 56.6%
40 | CC(C)NC(=O)N(C)C[C@H]1OCCCC[C@H](C)Oc2ccc(NS(=O)(=O)c3cn(C)cn3)cc2C(=O)N([C@@H](C)CO)C[C@H]1C | inactive: -0.935%
41 | Cc1ccccc1-c1ccc(C2[C@@H]3CN(C(=O)C4CC4)C[C@H]2N3)cc1 (stereo partly specified) | inactive: 2.27% and active: 27.2%
42 | C[C@H]1CN([C@@H](C)CO)C(=O)c2cccc(NC(=O)Nc3ccc(F)cc3)c2O[C@@H]1CN(C)S(=O)(=O)c1cccs1 | inconclusive: 40.7%
43 | CN(C)C(=O)C[C@@H]1C=C[C@@H](NC(=O)NC2CCCC2)[C@@H](CO)O1 | inconclusive: 29.1%
44 | COc1ccc(C(=O)O/N=C2\CCS(=O)(=O)c3sccc32)cc1 | inconclusive: 29.1%
45 | CCNC(=O)[C@H]1[C@H](CO)[C@H]2Cn3c(ccc(-c4ccccc4)c3=O)[C@H]2N1CC | inconclusive: 20.3%
46 | C[C@@H]1CN([C@@H](C)CO)C(=O)CCCn2nncc2CO[C@@H]1CN(C)C(=O)Nc1ccc(N2CCN(C)CC2)cc1 | inconclusive: 22.8%

Individual results from the entries so far.
Value for COc1cc(F)ccc1-c1cc(C(=O)NCc2cc(C(F)(F)F)cc(C(F)(F)F)c2)[nH]n1 under CPE inhibition: inconclusive: 28.5%
Value for CCNC(=O)[C@H]1[C@H](CO)[C@H]2Cn3c(ccc(-c4ccccc4)c3=O)[C@H]2N1CC under CPE inhibition: inconclusive: 20.3%
